# Laboratory results as given in patent US20090226428A1 (CEPHALON AUSTRALIA, published 2009).
# By UniProt entry, the sequences of proteins in these tests, tags left out. Residues count along the entry.
# UniProt P01375, residues 77-233: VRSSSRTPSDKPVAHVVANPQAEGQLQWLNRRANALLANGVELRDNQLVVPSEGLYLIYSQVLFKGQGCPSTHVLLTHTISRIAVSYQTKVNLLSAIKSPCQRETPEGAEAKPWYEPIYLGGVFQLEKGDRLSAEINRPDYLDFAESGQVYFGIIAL
# Numbering of substitutions follows the chain as printed. These are yes or no findings as the source states them, for the method shown. Some results given as binding are weak or reduced against the parent protein; the word gives no strength.
# B1: Owl Monkey 1 CDR2-grafted dAb (CDR=YAATKLQS) (protein)
# VL: DIQMTQSPSSLSASVGDRVTITCRASQSIDSYLHWYQQKPGKAPKLLIYAATKLQSGVPSRFSGSGSGTDFTLTISSLQPEDFATYYCQQVVWRPFTFGQGTKVEIKR
# B2: Owl Monkey 2 CDR2-grafted dAb (CDR=YEASSLQS) (protein)
# VL: B1 VL with A50E, T52S, K53S
# B3: Marmoset 1 CDR2-grafted dAb (CDR=YEASKLQS) (protein)
# VL: B1 VL with A50E, T52S
# Target: T1, human TNF-α (human, UniProt P01375 77-233)
# Assay: receptor binding assay (plate ELISA): dAb mixed with TNF, binding to captured TNF receptor 1-Fc
row,Binder,binding
1,B1,binds
2,B2,binds
3,B3,binds

# Target: T1, human TNF-α
# Assay: receptor binding assay (ELISA): dAb mixed with TNF (10 ng/ml), binding of TNF to captured TNF receptor 1 Fc fusion protein detected; blocked partner TNF receptor 1-Fc
# Protocol: dAbs diversified in the 14 selected positions were tested for the ability to inhibit the binding of TNF to recombinant TNF receptor 1 (p55). Briefly, Maxisorp plates were incubated overnight with […] anti-human Fc mouse monoclonal antibody (Zymed, San Francisco, USA). The wells were washed with phosphate buffered saline (PBS) containing 0.05% Tween-20 and then blocked with 1% BSA in PBS before being incubated with 100 ng/ml TNF receptor 1 Fc fusion protein (R&D Systems, Minneapolis, USA). Each dAb was mixed with TNF which was added to the washed wells at a final concentration of 10 ng/ml. TNF binding was detected with 0.2 mg/ml biotinylated anti-TNF antibody (HyCult biotechnology, Uben, Netherlands) followed by 1 in 500 dilution of horse radish peroxidase labelled streptavidin (Amersham Biosciences, UK) and then incubation with TMB substrate (KPL, Gaithersburg, USA). The reaction was stopped by the addition of HCl and the absorbance was read at 450 nm. Anti-TNF dAb activity lead to a decrease in TNF binding and therefore a decrease in absorbance compared with the TNF only control (FIG. 5).
row,Binder,binding
1,B1,binds
2,B2,binds
3,B3,binds
